Earlier results, collected in patent US20080194492A1, “Plant Extracts for the Treatment of Incresed Bone Resorption” (priority 2003, published 2008).
For at least one compound, name, drawing or mass did not settle the structure.

Test system: bone loss
Conditions: single pharmacological dose, much higher than contained in 1 g of vegetables; cited from earlier work

## C[C@@H]1O[C@@H](OC[C@H]2O[C@@H](Oc3c(-c4ccc(O)c(O)c4)oc4cc(O)cc(O)c4c3=O)[C@H](O)[C@@H](O)[C@@H]2O)[C@H](O)[C@H](O)[C@H]1O [rutin]
  bone loss in rats (in words): inhibited bone loss
